PubChem BioAssay AID1259425 | University of Nebraska Medical Center – 2018

- Test: 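Find knockdowns that reproduce the gene expression pattern seen when KSR1 is lost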 (primary screen)
- System: HCT116 human colon cancer cells
- Reagents: siRNA pool against human genes, 50 nM siRNA
- Measured: 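After 50 nM siRNA pool, branched-DNA assay measures six marker transcripts per well, minus blank, normalised to the geometric mean of two housekeeping transcripts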
- Scale: BNIP3L mRNA: higher = more BNIP3L transcript after knockdown
In all, the deposit lists about 14,000 reagents; this is a random part of them. Further read-outs or replicates are left out here. Not given: the time to read-out.

The opening 2 records, ahead of the listing:
MYH7: BNIP3L mRNA, set 1 = 0.0887
CSHL1: BNIP3L mRNA, set 1 = 0.134

The list itself, from the start:
MYH7: BNIP3L mRNA, set 1 = 0.0887
CSHL1: BNIP3L mRNA, set 1 = 0.134
GSTCD: BNIP3L mRNA, set 1 = 0.103
HOMER1: BNIP3L mRNA, set 1 = 0.0954
SLC3A2: BNIP3L mRNA, set 1 = 0.0812
MYOM1: BNIP3L mRNA, set 1 = 0.163
PHLPP1: BNIP3L mRNA, set 1 = 0.113
CLDN6: BNIP3L mRNA, set 1 = 0.151
FKBP14: BNIP3L mRNA, set 1 = 0.0608
ART1: BNIP3L mRNA, set 1 = 0.0815
USP7: BNIP3L mRNA, set 1 = 0.0711
CETN2: BNIP3L mRNA, set 1 = 0.0666
ADCY6: BNIP3L mRNA, set 1 = 0.0798
SLC19A2: BNIP3L mRNA, set 1 = 0.0938
CMTR1: BNIP3L mRNA, set 1 = 0.109
PRC1: BNIP3L mRNA, set 1 = 0.116
NPY1R: BNIP3L mRNA, set 1 = 0.274
DBI: BNIP3L mRNA, set 1 = 0.0907
MRPL23: BNIP3L mRNA, set 1 = 0.152
ZNF334: BNIP3L mRNA, set 1 = 0.0858
HSPA13: BNIP3L mRNA, set 1 = 0.0586
CDK15: BNIP3L mRNA, set 1 = 0.0894
MT1A: BNIP3L mRNA, set 1 = 0.115
DNTTIP2: BNIP3L mRNA, set 1 = 0.126
EBF1: BNIP3L mRNA, set 1 = 0.126
PGLYRP4: BNIP3L mRNA, set 1 = 0.184
NOD1: BNIP3L mRNA, set 1 = 0.0679
CXCL9: BNIP3L mRNA, set 1 = 0.112
